Test results taken from US5244884A, “Thionated analogues of thyrotropin releasing hormone” (The United States of America as represented by the …, priority 1992, dated 1993).
At least one peptide structure holds a part that was inferred or is arguable (an end, a ring closure or a residue).

Target: TRH receptor binding sites in cortex
Assay: Receptor binding assay, [3H][3-Me-His2]-TRH competition, cortex homogenate
Design: species or system rat (Sprague-Dawley)
Details: rat cortex membranes; [3H][3-Me-His2]-TRH 3 to 5 nM; 4-6 °C, 2.5 hours; mean ± S.E.M.
Method: Adult, male Sprague-Dawley rats were obtained from Taconic Farms (Germantown, N.Y.) and housed at controlled temperature (22° C.) and light cycle (12/12 h) with free access to food and water. On the experimental day, six to eight animals were rapidly decapitated and their brains quickly removed and placed on a cold plate. Anterior pituitary and cortex tissue samples were obtained and processed immediately for receptor-binding experiments.
All steps of the tissue preparation and binding assays were done on ice. After weighing, pooled tissue samples were homogenized in 25 ml of ice-cold sodium phosphate buffer (0.1M, pH 7.4-7.5), using a Brinkmann Polytron homogenizer (setting 7, 15-20 s). […]
Competition experiments were performed by incubating mixtures of tissue resuspensions, [3H][3-Me-His2]-TRH (87 Ci/mmol, Amersham) in 3 to 5 nM final concentration and increasing amounts of analog in a total volume of 100 μl/vial at 4° to 6° C. for 2.5 hours. […] Nonspecific binding was determined in the presence of 10 μM TRH. […] Filters were then placed in scintillation vials and kept overnight in 5 ml of watermiscible scintillation fluid (Beckman Ready-SolvTM HP) each. Bound radioactivity was measured after thorough shaking of the vials on the following day in an LKB 1218 Rackbeta liquid scintillation counter with automatic correction for tritium quenching. […]

Q: Which Ki does the source give for NC(=O)[C@@H]1CCCN1C(=O)[C@H](Cc1c[nH]cn1)NC(=O)[C@@H]1CCC(=S)N1 [Example 1, L-thiopyroglutamyl-L-histidyl-L-oroline amide] here?
A: Its Ki is 501 ± 173 nM.
